# According to publication PMC7937683:
# By UniProt entry, the sequences of proteins in these tests, tags left out. Residues count along the entry.
# UniProt Q14126, residues 50-1118: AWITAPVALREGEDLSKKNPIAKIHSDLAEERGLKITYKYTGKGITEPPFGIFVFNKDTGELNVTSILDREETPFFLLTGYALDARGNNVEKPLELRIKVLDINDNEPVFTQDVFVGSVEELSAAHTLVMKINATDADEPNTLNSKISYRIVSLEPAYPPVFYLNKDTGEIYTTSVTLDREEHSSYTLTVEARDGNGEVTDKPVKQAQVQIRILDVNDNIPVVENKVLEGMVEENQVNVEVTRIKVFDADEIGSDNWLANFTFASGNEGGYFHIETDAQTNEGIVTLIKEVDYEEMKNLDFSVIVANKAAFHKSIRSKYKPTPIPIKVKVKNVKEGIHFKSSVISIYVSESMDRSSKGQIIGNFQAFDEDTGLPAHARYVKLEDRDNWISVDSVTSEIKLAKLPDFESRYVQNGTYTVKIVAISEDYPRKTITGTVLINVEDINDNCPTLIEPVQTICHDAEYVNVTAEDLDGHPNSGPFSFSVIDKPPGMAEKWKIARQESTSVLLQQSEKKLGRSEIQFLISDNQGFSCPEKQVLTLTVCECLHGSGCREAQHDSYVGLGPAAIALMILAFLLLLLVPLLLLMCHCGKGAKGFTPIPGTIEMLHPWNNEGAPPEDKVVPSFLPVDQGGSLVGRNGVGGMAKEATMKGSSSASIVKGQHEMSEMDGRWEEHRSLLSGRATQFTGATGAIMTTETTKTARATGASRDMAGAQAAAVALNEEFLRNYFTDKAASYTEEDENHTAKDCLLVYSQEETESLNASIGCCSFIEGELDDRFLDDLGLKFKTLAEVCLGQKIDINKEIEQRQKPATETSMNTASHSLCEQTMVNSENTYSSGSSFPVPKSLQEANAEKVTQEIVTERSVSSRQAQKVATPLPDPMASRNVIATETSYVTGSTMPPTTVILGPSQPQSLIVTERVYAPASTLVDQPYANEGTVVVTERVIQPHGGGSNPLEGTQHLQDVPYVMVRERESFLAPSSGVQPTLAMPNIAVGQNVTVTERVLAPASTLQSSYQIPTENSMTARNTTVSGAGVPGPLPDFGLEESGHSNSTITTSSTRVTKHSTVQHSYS
# UniProt P28482: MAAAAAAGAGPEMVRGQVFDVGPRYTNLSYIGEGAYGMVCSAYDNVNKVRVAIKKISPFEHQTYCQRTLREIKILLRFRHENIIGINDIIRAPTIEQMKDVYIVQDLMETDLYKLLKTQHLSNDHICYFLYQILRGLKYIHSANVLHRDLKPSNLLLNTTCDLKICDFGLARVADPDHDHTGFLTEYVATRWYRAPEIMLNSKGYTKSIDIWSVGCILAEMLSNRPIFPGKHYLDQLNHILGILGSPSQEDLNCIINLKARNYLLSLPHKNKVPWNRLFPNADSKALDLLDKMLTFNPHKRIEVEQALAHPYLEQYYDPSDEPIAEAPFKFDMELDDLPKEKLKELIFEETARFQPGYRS
# UniProt P27361: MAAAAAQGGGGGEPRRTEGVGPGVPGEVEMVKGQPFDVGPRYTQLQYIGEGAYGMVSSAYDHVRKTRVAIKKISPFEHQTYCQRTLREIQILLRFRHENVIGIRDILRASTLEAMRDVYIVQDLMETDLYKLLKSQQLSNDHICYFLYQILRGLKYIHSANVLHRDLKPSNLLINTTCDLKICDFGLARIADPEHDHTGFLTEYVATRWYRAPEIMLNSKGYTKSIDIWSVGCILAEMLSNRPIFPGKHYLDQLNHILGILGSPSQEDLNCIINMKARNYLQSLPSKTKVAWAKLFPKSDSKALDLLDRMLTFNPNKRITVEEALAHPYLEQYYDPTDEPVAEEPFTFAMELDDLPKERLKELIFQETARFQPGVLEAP
# No constants are given. Whether binding was seen depends on the method and setting. In cells and extracts the contact can be indirect.
# Biological target: desmoglein-2 (human (endogenous in SNU308 and JCRB1033)) (UniProt Q14126)
# Assay: co-IP; endogenous proteins in RIPA lysates of GBC cells (SNU308, JCRB1033); IP with anti-Dsg2 antibody (named for Fig. 4b and 5a, not named for Fig. 4a and 4d), protein A or G agarose, western blot; also after FAK siRNA
row,binding,Substance
1,no binding,ERK2 (from UniProt P28482 1-360)
2,no binding,ERK1 (from UniProt P27361 1-379)
3,no binding,epidermal growth factor receptor (from UniProt P00533 25-1210)
